Hit rate of the full screen: of about 330,000 compounds, about 7,700 (2.3%) were called active. The inconclusive results got no clear call from the source; some entries with a clear call stand among them for comparison. Calls come from the whole dose curve; as a rule, active = well fitted inhibition curve with a large enough effect; inconclusive = small, poorly fitted or top-dose-only effect, or effect the other way; inactive = flat fitted curve, though single readings scatter. Where the call is inconclusive, the potency comes from a doubtful curve fit.
assay: qHTS screen for small molecules that inhibit ELG1-dependent DNA repair in human embryonic kidney (HEK293T) cells expressing luciferase-tagged ELG1; conditions: HEK293T ELG1-luciferase reporter, luminescence, 16 h, DNA damage induced by 5-fluorouridine; series mostly up to 46.1 µM; note: nearly all actives have a fitted effect of over 55% in size
Summary of the method: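 Luminescence from the luciferase reporter, measured 30 min after ONE-Glo reagent at room temperature, was the read-out. Beforehand, 2,000 cells per well were exposed for 16 hr at 37 °C to 5-fluorouridine together with compound or vehicle.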
Potency is the fitted concentration of half-maximal effect.

Structure (SMILES)	Potency
Cc1cc(NC(=O)c2ccno2)no1	inactive
Cc1ccsc1C(=O)NNC(=O)c1cccc(S(=O)(=O)N2CCCC2)c1	inactive
COc1ccccc1C(=O)Nc1ccccc1N1CCCCC1	inconclusive: 25.9 µM [inhibitor, single point]
Cc1cccc(NC(=O)c2cc3c([nH]c4ccccc43)c(C)n2)c1C	inconclusive: 29.1 µM [activator, partial curve, poor fit]
CCOc1ccc2nc(NC(=O)c3ccc(OCC4CCCO4)cc3)sc2c1 (centres undefined)	inconclusive: 20.6 µM [inhibitor, single point]
CCCCCC(/C=N/Nc1ccc(S(=O)(=O)N2CCOCC2)cc1[N+](=O)[O-])=C\c1ccccc1	inactive
O=C(CSc1nnc(COc2cccc3cccnc23)o1)N1CCc2ccccc21	inconclusive: 5.8 µM [inhibitor, single point]
O=C(OC1CCCCC1)c1ccc(NC(=O)c2ccco2)cc1	inconclusive: 5.8 µM [activator, full curve]
Cn1cc(CNC(=O)CC2C(=O)NCCN2CC(C)(C)C)cn1 (centres undefined)	inactive
COCCCn1c(=O)/c(=C\c2ccccc2OC(C)C)s/c1=C(/C#N)C(=O)Nc1ccc(C(=O)O)cc1	inconclusive: 11.6 µM [inhibitor, partial curve]
CC1CCC(NC(=O)c2cc(S(=O)(=O)N(C)C)ccc2N2CCCC2)CC1 (centres undefined)	inconclusive: 18.3 µM [activator, partial curve]
Brc1cccc(OCCSc2ncccn2)c1	inconclusive: 16.4 µM [activator, partial curve]
CC(=O)Nc1ccc(-c2csc(NCCc3ccccc3)n2)cc1	inconclusive: 29.1 µM [inhibitor, partial curve, poor fit]
CCOc1ccc2nc(NC(=O)CSc3nnnn3C3CCCCC3)sc2c1	inconclusive: 14.6 µM [activator, partial curve, poor fit]
CCN(CC)CCNC(=O)C1(O)c2cc(Br)ccc2NC(=O)N1c1cccc(OC)c1 (centres undefined)	inactive
Cc1ccc(S(=O)(=O)N2CCN(C(=O)/C=C/c3ccccc3)CC2)cc1C	inconclusive: 11.6 µM [inhibitor, partial curve, poor fit]
COc1ccc(-c2cc(C(=O)NCC(C)C)no2)cc1	inconclusive: 2.91 µM [activator, full curve]
NC(=O)c1sc2nc(-c3ccccc3)ccc2c1N	inconclusive: 4.61 µM [activator, full curve]
COc1ccccc1C1CCN(C(=O)c2cccc([N+](=O)[O-])c2)CC1	inconclusive: 23.1 µM [inhibitor, partial curve, poor fit]
CCOC(=O)c1csc(N/N=C2\CCCc3ccccc32)n1	inactive
COc1ccc2c(-c3ccccc3)cc(SCC(=O)N(C)C)nc2c1	inconclusive: 23.1 µM [inhibitor, single point]
CCOC(=O)C1=CNS(=O)(=O)NC1c1ccc(C#N)cc1 (centres undefined)	inconclusive: 16.4 µM [activator, partial curve, poor fit]
Cc1cc2c(cc(C(=O)NCc3cccnc3)n2Cc2ccc(Cl)cc2)o1	inconclusive: 18.4 µM [inhibitor, partial curve, poor fit]

Two compounds picked at random from the list so far:
Structure (SMILES)	Potency
Cc1cc(NC(=O)c2ccno2)no1	inactive
COc1ccc(-c2cc(C(=O)NCC(C)C)no2)cc1	inconclusive: 2.91 µM [activator, full curve]

Continued.

Structure (SMILES)	Potency
FC(F)(F)c1nc(=S)c2ccccc2[nH]1	inconclusive: 18.3 µM [inhibitor, single point]
O=C(Nc1nccs1)C1CC=CCC1C(=O)OCC(F)(F)C(F)F (centres undefined)	inactive
CC(CC(F)(F)F)N1CCC(n2nccc2NC(=O)CCOc2ccccc2)CC1 (centres undefined)	inactive
CCOC(=O)CN1C(=O)CSc2ccc(S(=O)(=O)N3CCCC3)cc21	inactive
c1ccc(N2CCN(c3ccccc3)C2c2ccncc2)cc1	inconclusive: 29.1 µM [inhibitor, single point]
OCCNc1nc(NCCC2=CCCCC2)nc(N2CCOCC2)n1	inconclusive: 8.91 µM [inhibitor, partial curve, poor fit]
Cc1cc(C)nc(N2CCC(C(=O)NCc3ccco3)CC2)n1	inactive
CCOc1cc(C(=O)CSc2nnc(CNc3ccc(Cl)cc3)o2)ccc1NC(=O)CC	inconclusive: 16.4 µM [inhibitor, single point]
COCCSc1nc2c(c(=O)[nH]c(=O)n2C)n1Cc1cccc(C)c1	inconclusive: 16.4 µM [activator, partial curve]
CSc1cccc(NCc2ccc([N+](=O)[O-])cc2)c1	inconclusive: 32.6 µM [activator, partial curve, poor fit]
CC(=O)c1ccc(N2CCN(C(=S)Nc3ccccc3)CC2)cc1	inactive
CCOC(=O)C1=C(C)NC2=C(C(=O)CCC2)C1c1cn(Cc2ccc(Cl)cc2Cl)nc1-c1ccccc1 (centres undefined)	inactive
O=c1c2ccccc2nc(-c2ccoc2)n1CCc1ccccc1	inconclusive: 12.6 µM [inhibitor, single point]
CC(C)c1nc(SCC(=O)Nc2ccc(N3CCOCC3)cc2)c2ccccc2n1	inconclusive: 20.6 µM [inhibitor, single point]
Cc1ccc(C(=O)Nc2nc3ccccc3n3nnnc23)cc1	inconclusive: 35.5 µM [activator, single point]
CCOc1ccc(C(=O)c2nc3c(n2O)CCCCC3)cc1	inconclusive: 18.4 µM [activator, partial curve]
O=C(NCc1ccco1)C(c1ccco1)N(Cc1cccs1)C(=O)Cn1nnc2ccccc21 (centres undefined)	inconclusive: 6.51 µM [inhibitor, partial curve]
Cc1cccc(C(=O)N2CCCC(CCC(=O)N3CCN(c4ccccn4)CC3)C2)c1 (centres undefined)	inconclusive: 29.1 µM [inhibitor, single point]
O=C(CCN1C(=O)[C@@H]2Cc3ccccc3CN2C1=O)N[C@@H](C(=O)O)c1ccccc1	inactive
O=C(O)/C=C/C(=O)N1Cc2cc3ccccc3nc2C1	inactive
COc1cc(CC(=O)Nc2ccc3nc(SC)sc3c2)cc(OC)c1OC	inconclusive: 23.1 µM [inhibitor, partial curve]
CC(C)(C)OC(=O)N1CCN(C(=O)c2[nH]cnc2C(=O)Nc2nccs2)CC1	inactive
COc1ccc(NC(=O)Cn2nnc(-c3ccccc3NS(=O)(=O)c3ccc(OC)cc3)n2)cc1	inconclusive: 6.51 µM [inhibitor, partial curve, poor fit]

Structure (SMILES)	Potency
Cc1ccc(NC(=O)COc2ccccc2[N+](=O)[O-])nc1	inconclusive: 1.46 µM [activator, full curve]
COC(=O)c1cccc(N(CC(=O)NC2CCCC2)C(=O)CNC(=O)c2cccs2)c1	inactive
CC1C(=O)CC(c2ccc([N+](=O)[O-])cc2)NC1c1ccc([N+](=O)[O-])cc1 (centres undefined)	inconclusive: 25.9 µM [inhibitor, partial curve, poor fit]
COC(=O)c1ccc(COc2ccc(/C=N/Nc3nc(C)cc(=O)[nH]3)cc2)cc1	inconclusive: 29.1 µM [activator, single point]
COCCNC(=O)CSc1nc2ccccc2c(=O)n1CCCC(=O)NCc1ccccc1	inactive
Cn1cccc1C(=O)NNC(=O)c1ccccc1Br	inconclusive: 20.6 µM [activator, partial curve]
O=C(Nc1ccc(N2CCCC2)cc1)c1ccccc1F	inconclusive: 1.64 µM [activator, partial curve]
Cc1ccc(NC(=O)COc2cccc(-n3cnnn3)c2)cc1[N+](=O)[O-]	inconclusive: 29.1 µM [inhibitor, single point]
O=C(COc1ccccc1)OCC(=O)c1ccc(O)cc1O	inactive
O=C(CCN1C(=O)C2CCCCC2C1=O)Nc1nc(-c2ccccc2)cs1 (centres undefined)	inconclusive: 11.6 µM [activator, partial curve, poor fit]
CCOC(=O)C1CCN(c2ccc(-c3cccs3)nn2)CC1	inconclusive: 23.1 µM [activator, single point]
CC1CC(C)CN(C(=O)c2ccc3ncsc3c2)C1 (centres undefined)	inactive
CCc1ccc(NC(=S)N2CCN(C)CC2)cc1	inconclusive: 16.4 µM [activator, partial curve]
CC(Oc1ccc(F)cc1)C(O)CCN(C)C (centres undefined)	inactive
COc1ccc(NC(=O)CSc2nc3c(c(=O)n2-c2ccccc2)SCC3)c(OC)c1	inconclusive: 16.4 µM [inhibitor, partial curve]
COc1ccc(S(=O)(=O)N2CCC(C(=O)Nc3ccc(S(=O)(=O)N4CCCC4)cc3)CC2)cc1OC	inactive
COc1cccc(NC(=O)CN2C(=O)NC(Cc3c[nH]c4ccccc34)C2=O)c1 (centres undefined)	inconclusive: 16.4 µM [activator, single point]
Cc1cc(C)c(C)c(S(=O)(=O)NCc2ccc(C(=O)N3CCCCC3)cc2)c1C	inactive
COC(=O)Cn1c(=NC(=O)c2ccc(S(=O)(=O)N3CCc4ccccc4C3)cc2)sc2cc(OC)ccc21	inconclusive: 4.11 µM [inhibitor, full curve]
CCn1c(SCC(=O)c2ccccc2)nnc1-c1cccnc1	inconclusive: 23.1 µM [activator, partial curve, poor fit]
O=C(Nc1ccccn1)c1ccc(S(=O)(=O)N2CCCCCC2)cc1	inconclusive: 11.2 µM [activator, partial curve, poor fit]
CN1CCN(C(CNC(=O)C(=O)Nc2ccc3c(c2)OCO3)c2ccc(F)cc2)CC1 (centres undefined)	inactive
CCCN1CCC(NCc2cn(C)nc2-c2ccc(Oc3ccccc3)cc2)CC1	inactive

— PubChem BioAssay AID504467 (National Center for Advancing Translational Sciences (NCATS), 2011)
